# The whole screen tested about 360,000 compounds, of which about 780 (0.22%) were called active. This list was built around the results that the source calls inconclusive (neither active nor inactive); the mix of calls is not that of the screen. Cut-off read from the data, not from the text of the source: active = inhibition above about 35% (passing the limit was not always enough); inconclusive = no clear call, values can overlap the other calls.
# Test system: Botulinum neurotoxin type F light chain protease (Clostridium botulinum)
# Assay: BoNT/F light chain protease inhibitors, primary screen, biochemical, flow cytometry, MLPCN library (AID 588497); note: plate controls were buffer without enzyme for full effect and enzyme alone for no effect
# Conditions: Multiplex microsphere protease cleavage assay, at 10 µM, active compounds read high
row,SMILES,inhibition
1,Cc1nc2nc(NC(=O)c3ccco3)[nH]n2c(=O)c1C,inactive: 4.6%
2,CN(NC1OC(=O)c2ccccc21)c1c([N+](=O)[O-])cc(C(F)(F)F)cc1[N+](=O)[O-] (stereo not given),inconclusive: 3.9%
3,CCCC(=O)Nc1ccc(C#Cc2ccccc2)cc1,inactive: 5.3%
4,COc1ccc(C(=O)Nc2cccc(/C(C)=N/NC(=O)c3ccc([N+](=O)[O-])c(C)c3)c2)cc1OC,inconclusive: 14.6%
5,CC1(C(=O)NC2CCCCC2)CCC(=O)N1Cc1ccc2c(c1)OCO2 (stereo not given),inactive: 6.6%
6,Cc1ccc(S(=O)(=O)N2CCCC2C(=O)NCc2ccccc2F)cc1 (stereo not given),inconclusive: -5.9%
7,COc1cccc(NC(=O)CN(C)C(=O)/C=C/c2cn(Cc3ccccc3)nc2-c2cccnc2)c1,inconclusive: 4.2%
8,CN1C(=O)CSc2ccc(NC(=O)NCc3ccccc3)cc21,inactive: -3.7%
9,C(=Cc1c[nH]c2ccccc12)c1ccc2ccccc2n1,inactive: -2.5%
10,COc1cc(/C=C2\SC(=S)N(NC(=O)c3ccc(O)cc3)C2=O)ccc1O,inconclusive: -4.5%
11,Cc1ccc(CN2CCN(c3ncccn3)CC2)c(C)c1,inconclusive: 25%
12,CCc1ccc2c(c1)[C@]1(C(=O)N2)[C@@H]2C(=O)N(Cc3ccccc3)C(=O)[C@@H]2[C@@H]2CCCN21,inactive: 4.5%
13,Cc1ccc(N2C(=O)CSC2c2cccnc2)c(Cl)c1 (stereo not given),inconclusive: 28.1%
14,COc1ccc(NC(=O)c2sccc2-n2cccc2)cc1,inactive: -3.8%
15,O=C(COc1ccc(Br)cc1)Nc1ccccc1N1CCCC1,inactive: -2.7%
16,Cc1ccc(C(=O)NCC(c2ccc(F)cc2)N2CCOCC2)cc1S(=O)(=O)N1CCOCC1 (stereo not given),inconclusive: -6.7%
17,CCN(CC)S(=O)(=O)c1ccc2[nH]c(=O)c3ccccc3c2c1,inconclusive: 7.6%
18,O=C(NCc1ccc(F)cc1)c1cc(C2CCCCN2S(=O)(=O)c2ccc(F)cc2F)on1 (stereo not given),inactive: -9.3%
19,CCN(CC)C(=O)CSc1nnc2nnc3cc(Cl)ccc3n12,inconclusive: 9.6%
20,O=C(Cc1ccc(F)cc1)Nc1nccs1,active: 41.9%
21,CC(C)(C)Nc1nc2ccc([N+](=O)[O-])cc2o1,inconclusive: 170%
22,Cc1cc(C)c(NC(=O)CSCc2c(C)noc2C)c(C)c1,inconclusive: -12.4%
23,COc1ccc(-c2nc(C#N)c(NCc3ccccc3Cl)o2)cc1OC,inactive: -2%

row,SMILES,inhibition
1,CCOc1ccc(S(=O)(=O)NCc2ccc3c(c2)OCO3)cc1NC(C)=O,inconclusive: -0.9%
2,Cc1cccc(N2CCN(c3nc4ccc(Cl)cc4n4cnnc34)CC2)c1C,inactive: -4.1%
3,COc1ccccc1C(=O)Nc1ccncc1,inconclusive: -2.8%
4,O=c1[nH]cc(N2CCCCCC2)c(=O)[nH]1,inconclusive: -20.9%
5,CCOC(=O)C1(Cc2ccccc2C)CCCN(C(=O)COC)C1 (stereo not given),inconclusive: 21.3%
6,COc1ccccc1NC(=O)c1ccc(NC(=O)CSc2nc(N)cc(=O)[nH]2)cc1,inconclusive: -8.5%
7,O=P(OC1CCCCC1)(OC1CCCCC1)C(Nc1ccccc1)c1cccnc1 (stereo not given),inconclusive: 23.6%
8,N=C1/C(=C\c2coc3ccccc3c2=O)C(=O)N=C2SC(c3ccncc3)=NN12,inactive: -1.8%
9,Cc1ccccc1CN(C)C(C)C(=O)NCc1ccccc1 (stereo not given),inconclusive: -16%
10,CNS(=O)(=O)c1ccc(CCC(=O)N2CCN(c3ccccc3OC)CC2)cc1,inconclusive: 0.7%
11,COc1ccc(-n2nc(C(=O)NCC(=O)NCc3ccco3)c3ccccc3c2=O)cc1,inactive: -3.6%
12,COc1ccc(-c2nnn(CC(=O)N(Cc3ccccc3Cl)C(C(=O)NCC3CCCO3)c3ccco3)n2)cc1OC (stereo not given),inconclusive: -12.1%
13,CN(C)c1ccc(CNn2cnnc2SCC(=O)NC(C)(C)C)cc1,inactive: 0.5%
14,Cc1nc(C(=O)NNC(=O)Nc2ccccc2)cs1,inconclusive: -11.1%
15,O=C(Nc1c(F)cc(F)cc1Br)c1cc(-c2ccco2)on1,inactive: -0.1%
16,CC1(C)CC(NC2C3CC4CC(C3)CC2C4)CC(C)(C)N1 (stereo not given),inconclusive: -51%
17,COC(=O)C(Cc1ccccc1)NC(=O)c1cccc(S(=O)(=O)N(C)C)c1 (stereo not given),active: 36.8%
18,CCCCc1cc(=O)oc2c(C)c(OCC(=O)NCCN3CCOCC3)ccc12,inconclusive: 0.5%
19,COc1cccc2c1OCC/C2=N\NC(=O)COc1ccccc1C,inactive: 1.4%
20,COC(=O)CCC(=O)NC1CC(C)(C)Cc2c1cnn2-c1ccc(F)cc1 (stereo not given),inconclusive: 5.5%
21,Cc1ccc(CCNC(=O)CCS(=O)(=O)c2ccc3nc(C)sc3c2)cc1,inactive: 3%
22,NS(=O)(=O)c1cnccc1Oc1cccc(Cl)c1,inconclusive: -47.5%
23,Cc1ccc(N2C(=O)CC(Sc3cccs3)C2=O)cc1 (stereo not given),inconclusive: -41.9%

# Two records picked at random from those above:
row,SMILES,inhibition
21,Cc1ccc(CCNC(=O)CCS(=O)(=O)c2ccc3nc(C)sc3c2)cc1,inactive: 3%
19,COc1cccc2c1OCC/C2=N\NC(=O)COc1ccccc1C,inactive: 1.4%

# The list continues:

row,SMILES,inhibition
1,COc1ccc(Cl)cc1C(=O)Nc1cccnc1Cl,inconclusive: -19.6%
2,COc1ccc(CC(=O)N/N=C(\C)c2ccc(Br)s2)cc1,inconclusive: 8.4%
3,Cc1ccc(NC(=S)NCc2ccc(F)cc2)cc1,inconclusive: -15.7%
4,O=[N+]([O-])c1ccc(Cl)c(C[n+]2cccc3ccccc32)c1,active: 48.8%
5,CCOC(=O)c1c(C)noc1-c1ccc(Br)o1,inconclusive: 8.6%
6,COc1ccc(C(=O)N2CCC(O)(c3ccc(Cl)cc3)CC2)cc1OC,inconclusive: 12.8%
7,COc1ccc(-c2nn(CCC#N)cc2C(=O)Nc2cccc(C(=O)O)c2)cc1OC,inconclusive: -12.7%
8,CCCC[n+]1ccn(C2=C([O-])c3ccccc3C(=O)/C2=N\S(=O)(=O)c2ccc(Cl)cc2)c1,inconclusive: -44.4%
9,O=[N+]([O-])c1c(Nc2ccc(O)cc2)cc(Cl)c2nonc12,inconclusive: -29.3%
10,COc1ccc(-c2sc3ccc(-c4ccc5c(c4)OCO5)cc3c2-c2ccc(OC)nc2)cc1,inactive: 5.8%
11,COc1ccc(NC(=O)NCCN2CCN(c3ccc(C)cc3)CC2)c(Cl)c1,inconclusive: -8.7%
12,COc1cccc(/C=N\NC(=O)c2ccc(C)nc2)c1,inconclusive: 9.8%
13,O=C(O)CSc1ccc(NC(=O)Nc2ccccc2F)cc1,inconclusive: -24.1%
14,CCOc1cccc2sc(N(CCN(C)C)C(=O)/C=C/c3cccs3)nc12,inactive: 6.9%
15,COc1ccc(CNC(=O)CC(C)S(=O)(=O)c2ccc3c(c2)NC(=O)CO3)cc1 (stereo not given),inactive: -1.3%
16,O=C(NCCc1nc2ccccc2[nH]1)/C(=C/c1ccc(F)cc1)NC(=O)c1ccco1,inconclusive: -67.4%
17,COc1ccc(CNCCNC(=O)c2nonc2N)cc1OC,inconclusive: -3%
18,c1ccc(N2CCN(C3CC4CCC3C4)CC2)cc1 (stereo not given),inconclusive: 32.2%
19,COc1ccc(-n2cnnc2SCC(=O)c2ccc(S(=O)(=O)N3CCOCC3)cc2)cc1,inconclusive: 14.6%
20,COc1cc(C2/C(=C(\O)c3ccc4c(c3)CC(C)O4)C(=O)C(=O)N2CCN2CCOCC2)cc(OC)c1OC (stereo not given),inactive: -0.1%
21,Nc1nnn(CC(=O)N/N=C/c2ccco2)n1,inconclusive: -27.9%
22,COc1ccc(OC)c(CN2CCCCCC2)c1,inconclusive: -24%
23,CCc1cccc(CC)c1NC(=O)CN1CCc2cc(OC)c(OC)cc2C1,inactive: 10.6%

# A section from further up, for reference:
row,SMILES,inhibition
13,O=C(O)CSc1ccc(NC(=O)Nc2ccccc2F)cc1,inconclusive: -24.1%
14,CCOc1cccc2sc(N(CCN(C)C)C(=O)/C=C/c3cccs3)nc12,inactive: 6.9%

# Next entries:

row,SMILES,inhibition
1,CCCOc1ccc(CCC(=O)N/N=C/c2ccc([N+](=O)[O-])o2)cc1,inconclusive: -42%
2,CCOC(=O)C1=C(N)Oc2c(c(=O)oc3ccccc23)C12C(=O)N(C)c1ccccc12 (stereo not given),inconclusive: 51.7%
3,COc1ccc([N+](=O)[O-])cc1C(=O)C(=O)c1ccccc1,inconclusive: -7.1%
4,CCc1noc(C)c1C(=O)N(CCC(C)C)c1c(N)n(Cc2ccccc2)c(=O)[nH]c1=O,inconclusive: -9.8%
5,O=c1c2ccccc2ncn1Cc1ccccc1,inconclusive: -45.4%
6,CN(CC(=O)Nc1ccccc1Cl)C(=O)C1CCN(S(=O)(=O)c2ccc3c(c2)OCCO3)CC1,inconclusive: 0.9%
7,CCOC(=O)c1cc(C#N)c(C)nc1N(CC)CC,inconclusive: 14.8%
8,CCCC(C)C1C(C#N)=C(N)Oc2c1c(=O)oc1ccccc21 (stereo not given),inconclusive: 8.3%
9,CC(C)(C)C(=O)O/N=C(\N)c1ccc(-c2csnn2)cc1,inconclusive: 29.7%
10,CCC(C)(C)NC(=O)c1ccc2c(c1)S(=O)(=O)c1ccccc1C2=O,inconclusive: 21.6%
11,O=C(/C=C/c1ccccc1)c1ccc2c(c1)OCO2,inconclusive: -18%
12,COc1cc(/C=N/n2c(C3CCCCC3)n[nH]c2=S)cc(Br)c1O,inactive: 8%
13,CC(C)(C)OC(=O)C[C@H]1C/C=C\C[C@H](CC(=O)N[C@H](CO)Cc2ccccc2)C(=O)N2CCC[C@H]2COC1=O,inactive: 0.1%
14,CC(C)C(NC(=S)Nc1ccccc1)C(=O)O (stereo not given),inactive: -3.8%
15,Nc1cc2c([N+](=O)[O-])cccc2o1,active: 37.6%
16,O=C(Nc1nnc(CCc2ccccc2)s1)c1ccccc1F,inconclusive: -3%
17,O=C(CSc1nc(=O)n2ccccc2n1)OCc1ccccc1,inconclusive: 0.6%
18,CCOC(=O)C1=C(c2ccccc2)NC(=O)NC1c1cccc(OC)c1OC (stereo not given),inconclusive: 47%
19,O=C(Nc1c[nH]c(=O)[nH]c1=O)c1cc([N+](=O)[O-])cc([N+](=O)[O-])c1,active: 135%
20,CCc1c(C(=O)OCc2ccccc2)[nH]c(C)c1C,inconclusive: -66.1%
21,Fc1ccc(N2CCN(C3CCC(c4ccccc4)CC3)CC2)cc1 (stereo not given),inconclusive: -68.3%
